No constants are given. Whether binding was seen depends on the method and setting. For part of these data: Binding seen in cells or lysates may run through a third protein. For part of these data: Binding can be weak; no strength is given. For part of these data: Where a sequence is shown, tags or fusion partners need not be part of it.

Assay [1] deals with T1, GST-YidC2CT (Streptococcus mutans UA159) (UniProt Q8DSP8).
T1 sequence: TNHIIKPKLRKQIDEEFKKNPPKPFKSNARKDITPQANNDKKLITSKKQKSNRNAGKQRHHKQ
The assay can be described thus: ELISA. Background: ELISA stands for enzyme-linked immunosorbent assay.

Assay [2] concerns the target T2, GST-YidC1CT (Streptococcus mutans UA159) (UniProt Q8DVX3).
T2 sequence: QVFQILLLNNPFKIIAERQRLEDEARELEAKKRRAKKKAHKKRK
In words: ELISA.

The target of assay [3] is T3, YidC1 (Streptococcus mutans (endogenous in UA159)) (UniProt Q8DVX3).
T3 sequence: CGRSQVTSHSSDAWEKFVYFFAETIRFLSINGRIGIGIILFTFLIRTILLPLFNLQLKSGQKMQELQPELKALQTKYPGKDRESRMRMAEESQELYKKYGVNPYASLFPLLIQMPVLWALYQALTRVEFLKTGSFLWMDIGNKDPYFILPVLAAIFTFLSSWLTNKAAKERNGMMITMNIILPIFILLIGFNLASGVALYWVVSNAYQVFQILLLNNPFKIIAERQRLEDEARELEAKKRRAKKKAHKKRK
In words: cross-linking.

SecA (tested by ELISA): the binding result in assay [1] and in assay [2] was “no binding” throughout.

In the case of SecY (from UniProt Q8DS32), in assay [3], the binding entry was “binds”.

For the origin of these results see article doi:10.1101/2020.04.07.031013.
